Our source for the binding values is patent US20220204644A1 (MAB DISCOVERY, published 2022).

No constants are given. Whether binding was seen depends on the method and setting. Some binding calls cover weakened binding; strength is not graded here.

Test [1] has as its target HER2 fusion-protein containing sub-domain III and IV (human) (UniProt P04626). The test is described as follows: ELISA, coated HER2 domain, antibody at 10 µg/ml. For orientation: In an ELISA, binding on a coated surface is turned into a signal by an enzyme label.
The target in test [2] is HER2 sub-domain III, recombinant (human) (UniProt P04626). The test is described as follows: ELISA, coated HER2 domain, antibody at 10 µg/ml.

B1: B100 anti-HER2 monoclonal antibody (antibody, V domains shown)
VH: QSVEESGGRLVTPGTPLTLTCTVSGFSLSNYGVSWVRQAPGKGLEYIGIISGSGFTYYASWAKGRFTISKTSTTVDLKITSPTTKDTATYFCARGVVPGYNAGGLWGQGTLVTVSS
VL: DIVMTQTPASVSEPVGGTVTIKCQASQGISTALAWYQQKPGQRPKLLIYSASTLASGVSSRFKGSGSGTQFTLTISDLECADAATYYCQCTAAGSVSVGAFGGGTEVVVN
notes: It was detected in the ELISA with an anti-human F(ab)2 conjugate; also called B100 antibody
In the case of B1, the binding entry in test [1] and in test [2] was “binds” each time.
